From PubChem BioAssay AID493027 (The Scripps Research Institute Molecular Screening Center, 2011) come the findings set out here.

Protein sequences, listed by entry. Tags and fused reporters are not part of them. Lines headed by an entry give the natural chain unless they say otherwise; changes in a name come on top.
UniProt O60240: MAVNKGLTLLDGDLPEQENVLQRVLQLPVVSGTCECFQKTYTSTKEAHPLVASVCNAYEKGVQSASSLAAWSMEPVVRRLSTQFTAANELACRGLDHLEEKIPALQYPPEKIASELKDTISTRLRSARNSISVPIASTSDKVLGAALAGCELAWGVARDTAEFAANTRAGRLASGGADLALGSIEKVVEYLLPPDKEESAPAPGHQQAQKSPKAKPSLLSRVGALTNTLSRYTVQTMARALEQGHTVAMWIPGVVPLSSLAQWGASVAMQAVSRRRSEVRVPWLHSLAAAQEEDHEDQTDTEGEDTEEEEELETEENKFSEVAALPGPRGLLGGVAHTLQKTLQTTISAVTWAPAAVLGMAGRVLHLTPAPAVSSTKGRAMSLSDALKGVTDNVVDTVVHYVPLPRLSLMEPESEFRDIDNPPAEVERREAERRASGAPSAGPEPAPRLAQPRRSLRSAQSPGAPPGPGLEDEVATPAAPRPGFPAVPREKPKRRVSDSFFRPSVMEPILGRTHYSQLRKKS
UniProt Q8WTS1: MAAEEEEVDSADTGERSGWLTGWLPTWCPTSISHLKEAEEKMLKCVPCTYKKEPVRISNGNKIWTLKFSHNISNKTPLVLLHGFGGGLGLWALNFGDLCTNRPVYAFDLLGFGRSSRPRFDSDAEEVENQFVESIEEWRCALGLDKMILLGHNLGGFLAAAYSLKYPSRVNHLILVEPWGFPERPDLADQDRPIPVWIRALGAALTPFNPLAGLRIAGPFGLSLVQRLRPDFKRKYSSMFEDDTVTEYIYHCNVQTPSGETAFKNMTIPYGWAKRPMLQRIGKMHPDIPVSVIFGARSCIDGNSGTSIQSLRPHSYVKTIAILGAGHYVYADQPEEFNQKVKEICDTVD

Several values for one entry are separate records, joined by “and”; a condition that tells them apart may be missing. Identical values can stand only once. Out of some 2,000 compounds screened, about 45 (2%) were called active.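 The calls were made as follows: active = inhibition above the screen-wide mean inhibition plus 3 SD (cut at about 44% in these data); inactive = the rest.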 This is one part of the list.

This assay concerns the target Perilipin-1 (Homo sapiens) + 1-acylglycerol-3-phosphate O-acyltransferase ABHD5 (Homo sapiens) (UniProt O60240+Q8WTS1). Nature of the assay: ABHD5-PLIN1 interaction inhibitors, pilot screen, cell lysate, split luciferase complementation, luminescence, NIH validation set (AID 493027).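 Also: 0% = DMSO wells with the 100% control not disclosed.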 The following applies: split G. princeps luciferase complementation, 4 h; at 7.9 µM, active compounds read high.
Broadly, the inhibition is the change of the read-out against control, counted positive when it falls. Regarding `CCOc1ccc(C(=O)N2CCCC2C(=O)O)cc1` (configuration not stated), the inhibition was inactive: -4.07%.

For the compound `CC(=O)NS(=O)(=O)c1ccc(N)cc1`, the inhibition was inactive: 2.8%.

As to `O=C(N/N=C\c1cc([N+](=O)[O-])ccc1N1CCOCC1)c1ccccn1`, the inhibition was inactive: -3.78%.

As for `COc1ccc(C(=O)CC2OC(=O)c3c2ccc(OC)c3OC)cc1` (configuration not stated), the inhibition was inactive: 2.22%.

`CC(=O)OCC(=O)[C@@]12OC(C)(C)O[C@@H]1C[C@H]1[C@@H]3C[C@H](F)C4=CC(=O)C=C[C@]4(C)[C@@]3(F)[C@@H](O)C[C@@]12C`: the inhibition was inactive: 6.92%.

Take `COc1ccc(/C=C\c2cc(OC)c(OC)cc2CC[N+](C)(C)C)cc1OC`: the inhibition is inactive: -4.32%.

As for `c1ccc2c(CC3=NCCN3)cccc2c1`, the inhibition is inactive: -5.66%.

Turning to `CCN(CC)CC(=O)Nc1c(C)cccc1C`, the inhibition was inactive: -5.47% and inactive: 3.97%.

On to `CC(=O)CSc1ncnc2c1cnn2-c1ccccc1`, for which the inhibition is inactive: 7.34%.

With `CC(C)C12CN3CC(C(C)C)(CN(C1)C31C(=O)Nc3ccccc31)C2=O` (configuration not stated), the inhibition was inactive: -9.01%.

`CCOC(=O)COc1ccc2c(=O)c(-c3ccccc3)coc2c1`: the inhibition is inactive: -3.06%.

For the compound `NC(N)=NC(=O)c1nc(Cl)c(N)nc1N`, the inhibition was inactive: 3.33%.

For the compound `COc1ccc(Cc2noc(CN(C)CCN3CCc4ccccc4C3)n2)cc1OC`, the inhibition is inactive: -4.02%.

On to `CC(=O)CCc1oc2ccccc2c1-c1ccccc1`, for which the inhibition is inactive: -1.83%.

As to `Cc1cccc(C)c1NS(=O)(=O)c1ccc(NC(=O)c2ccc(Cl)c([N+](=O)[O-])c2)cc1`, the inhibition is inactive: 26.2%.

As to `CCc1ccc(/C=C2\SC(=S)N(CCC(=O)N3CCN(C)CC3)C2=O)cc1`, the inhibition is inactive: -12.7%.

Regarding `COC(=O)c1cc(=O)c2ccc(OC)cc2o1`, the inhibition was inactive: -10.3%.

With `CCOC(=O)/C=C1\NC(C)(C)Cc2cc(OC)c(OC)cc21`, the inhibition was inactive: -2.16%.

As for `CC12CN3CC(C)(CN(C1)C3c1ccc(Br)cc1O)C2` (configuration not stated), the inhibition was inactive: 1.91%.

`O=S(=O)(NCCCCCNS(=O)(=O)c1ccccc1)c1ccccc1`: the inhibition is inactive: 1.18%.

Take `CC(C)C12CN3CC(C(C)C)(CN(C1)C3c1ccccc1O)C2=O` (configuration not stated): the inhibition was inactive: 0.8%.

With `NS(=O)(=O)c1cc2c(cc1C(F)(F)F)NCNS2(=O)=O`, the inhibition is inactive: -0.13%.

`CC(O)Cn1cnc2c1c(=O)n(C)c(=O)n2C` (configuration not stated): the inhibition is inactive: 0.82%.

`O=C(NC(=S)N1CCCCC1)c1cccnc1`: the inhibition is inactive: -3.63%.

In the case of `COc1cc(CNCCc2ccccc2F)ccc1OCC(=O)N1CCCCC1`, the inhibition was inactive: -13%.

With `COc1ccc2nc(Nc3nc(CSc4ccc(C)cc4)cc(=O)[nH]3)nc(C)c2c1`, the inhibition is inactive: 9.69%.

In the case of `O=c1c2[nH]c3ccccc3c2ncn1CCC1=CCCCC1`, the inhibition is inactive: -7.25%.

With `Nc1nc2c(ncn2COCCO)c(=O)[nH]1`, the inhibition was inactive: -2.87%.

`Cc1ccccc1NC(=O)NCCc1c[nH]c2ccccc12`: the inhibition was inactive: -4.18%.

Take `Cn1cnc2c1c(=O)n(CC(O)CO)c(=O)n2C` (configuration not stated): the inhibition was inactive: -7.24%.

As to `CC(=O)OCC(=O)[C@@]1(O)[C@H](C)C[C@H]2[C@@H]3CCC4=CC(=O)C=C[C@]4(C)[C@@]3(F)[C@@H](O)C[C@@]21C`, the inhibition was inactive: -9.43%.

As to `COc1ccc(C(=O)Nc2cccnc2)cc1C(=O)Nc1cccnc1`, the inhibition was inactive: -3.28%.

As for `CCC12CN3CC(CC)(CN(C1)C31C(=O)N(C)c3ccc(C)cc31)C2=O` (configuration not stated), the inhibition is inactive: 0.44%.

For the compound `CCOCCn1c(C(C)O)nc2ccccc21` (configuration not stated), the inhibition is inactive: -7.89%.

In the case of `COc1cc2c(cc1OC)C(c1ccccc1)=NCC2`, the inhibition is inactive: 1.37%.

With `Cc1occc(=O)c1O`, the inhibition is inactive: 0.1%.

For `O=C(O)c1ccc(OCCn2ccnc2)cc1`, the inhibition is inactive: -0.39%.

On to `C#C[C@]1(O)CC[C@H]2[C@@H]3CCc4cc(O)ccc4[C@H]3CC[C@@]21C`, for which the inhibition is inactive: 14.4%.

As to `Cc1oc2cc(O)cc(O)c2c(=O)c1-c1ccc2c(c1)OCCCO2`, the inhibition was inactive: 13.7%.

As to `CC(C(=O)O)c1cccc(C(=O)c2ccccc2)c1` (configuration not stated), the inhibition is inactive: -9.32%.

Turning to `COc1cc(SC)ccc1C(=O)NC(C)C`, the inhibition was inactive: 4.38%.

In the case of `COc1ccc(C(=O)NCCC2=CCCCC2)cc1[N+](=O)[O-]`, the inhibition was inactive: -0.76%.

As for `CCOC(=O)c1ncn2c1CN(C)C(=O)c1cc(F)ccc1-2`, the inhibition was inactive: -14.2%.

Take `CCOC(=O)Cc1c(C)nc(N)[nH]c1=O`: the inhibition was inactive: -11.9%.

In the case of `CC(=O)N1CCN2C(=O)C1CCCC(=O)c1cc(C(C)C)ccc12` (configuration not stated), the inhibition was inactive: 0.46%.

As for `CCCC1O[C@@H]2C[C@H]3[C@@H]4CCC5=CC(=O)C=C[C@]5(C)[C@H]4[C@@H](O)C[C@]3(C)[C@]2(C(=O)CO)O1` (some centres not stated), the inhibition is inactive: 0.23%.

Regarding `CC1(C)Cc2nc3oc4c(NCc5ccccc5)ncnc4c3cc2CO1`, the inhibition was inactive: 6.64%.

Regarding `Cc1ccc([N+](=O)[O-])cc1NC1OC(CO)C(O)C1O` (configuration not stated), the inhibition is inactive: 2.85%.

As for `Cc1ccccc1NC(=O)c1c(C)cc(=O)oc1C`, the inhibition was inactive: 1.38%.

As for `O=C(CNC(=O)OCc1ccccc1)Oc1cc2oc(=O)cc(-c3ccccc3)c2cc1Cl`, the inhibition was inactive: 4.96%.

In the case of `Cc1cc(NS(=O)(=O)c2ccc(N)cc2)no1`, the inhibition is inactive: -8.07%.

For the compound `NS(=O)(=O)c1cc2c(cc1Cl)NC(CSCc1ccccc1)=NS2(=O)=O`, the inhibition is inactive: -9.45%.

For the compound `CCNC(=O)c1sc2cc(C)ccc2c1Cl`, the inhibition was inactive: -4.33%.

In the case of `COc1cc(NC(=O)N[C@@H](Cc2ccccc2)C(=O)O)cc(OC)c1`, the inhibition is inactive: -9.41%.

On to `Cn1c2ccc(CC(=O)O)cc2c2cc(CC(=O)O)ccc21`, for which the inhibition is inactive: 3.75%.

On to `CC1(C)S[C@@H]2[C@H](NC(=O)C(C(=O)O)c3ccccc3)C(=O)N2[C@H]1C(=O)O` (some centres not stated), for which the inhibition was inactive: -6.15%.

Consider `OCC1(CCOc2ccccc2)CCN(CCCn2cccn2)CC1`, for which the inhibition was inactive: -3.46%.

On to `CC(=O)[C@@]1(O)CC[C@H]2[C@@H]3C[C@H](C)C4=CC(=O)CC[C@]4(C)[C@H]3CC[C@@]21C`, for which the inhibition was inactive: -8%.

For `Cc1ccc2nc(NC3=NC(CC(=O)O)C(=O)N3)nc(C)c2c1` (configuration not stated), the inhibition was inactive: -7.42%.

In the case of `COc1ccc2[nH]c3c(c2c1)CCn1c-3nc2ccccc2c1=O`, the inhibition was inactive: -4.4%.

For the compound `COc1cc2c3c(c1)C1(C(=O)N3C(C)(C)C=C2C)C(C#N)=C(N)Oc2cc(C)oc(=O)c21` (configuration not stated), the inhibition was inactive: -0.82%.

With `COc1cc2c(cc1OC)C(C)=NC1(CCCCC1)C2`, the inhibition was inactive: -6.1%.

Regarding `O=C1OC(Nc2ccc3c(c2)OCO3)c2ccccc21` (configuration not stated), the inhibition is inactive: 6.91%.

Turning to `CCNC(=O)c1c(N)sc2c1CCCCC2`, the inhibition is inactive: 6.41%.

Consider `COc1ccc(C(C)N2CC34C=CC(O3)C(C(=O)OCC(C)C)C4C2=O)cc1` (configuration not stated), for which the inhibition was inactive: -3.6%.

Turning to `Nc1c2c(nc3ccccc13)CCCC2`, the inhibition was inactive: 5.39%.

As for `Nc1ccc2cn[nH]c2c1`, the inhibition is inactive: -18.1%.

`COc1cc2cc(C(=O)O)n(C)c2c(OC)c1OC`: the inhibition is inactive: 3.69%.

As for `CCOC(=O)C(NC(C)=O)C(O)c1ccc([N+](=O)[O-])cc1` (configuration not stated), the inhibition was inactive: -8.13%.

In the case of `CCSc1nc(O)c(C2OC(=O)c3c2ccc(OC)c3OC)c(=O)n1CC` (configuration not stated), the inhibition is inactive: -1.67%.

Take `COCCOC(=O)C1=C(N)OC2=C(C(=O)CCC2)C1c1cccnc1` (configuration not stated): the inhibition is inactive: -5.76%.

`c1ccc(-c2ccccn2)nc1`: the inhibition was inactive: 2.78%.

For the compound `C[C@]12C[C@H](O)[C@H]3[C@@H](CCC4=CC(=O)CC[C@@]43C)[C@@H]1CC[C@@H]2C(=O)CO`, the inhibition was inactive: -0.42%.

Take `O=C(NC(Nc1ccccn1)C(Cl)(Cl)Cl)c1ccccc1` (configuration not stated): the inhibition is inactive: 9.27%.

Turning to `O=C(NCCNc1ccc(Cl)cc1[N+](=O)[O-])c1cccnc1`, the inhibition was inactive: 3.6%.

On to `COc1ccc(NC(=S)NCCc2c[nH]c3ccccc23)cc1`, for which the inhibition is inactive: 0.31%.

In the case of `CC(C)Oc1ccc(C2CC(=O)N(c3ccc(C(=O)O)cc3)C2=O)cc1` (configuration not stated), the inhibition is inactive: -6.52%.

Take `Oc1ccc(COCc2ccccc2)c2cccnc12`: the inhibition was inactive: -4.04%.

For `O=C(O)c1cc2cc(Cl)cc(Cl)c2oc1=O`, the inhibition is inactive: 1.22%.

`CC(=O)c1c(C)c(C)c2n1CCn1c(C)ccc1-2`: the inhibition was inactive: 5.75%.

With `O=C(OCC(O)C(O)COC(=O)c1ccccc1)c1ccccc1` (configuration not stated), the inhibition was inactive: -7.77%.

On to `O=C(CCc1ccccc1)Nc1ccccc1C(F)(F)F`, for which the inhibition is inactive: -14%.

On to `COc1cc(CNc2ccc(C)c(C)c2)cc(OC)c1OC`, for which the inhibition is inactive: 0.28%.

For the compound `Cc1ccc(C2CC(c3cccs3)=NN2C(=O)c2ccco2)o1` (configuration not stated), the inhibition is inactive: 1.57%.

Regarding `O=C(CNC(=O)OCc1ccccc1)NC1CCCCCC1`, the inhibition is inactive: -8.58%.

Consider `CC(=O)N[C@@H](CS)C(=O)O`, for which the inhibition was inactive: -18.8%.

For `Cc1nc(C2CC(=O)OC23CCCCC3)cs1` (configuration not stated), the inhibition was inactive: -10.4%.

Take `COc1ccc(C(=O)O)cc1F`: the inhibition was inactive: -0.5%.

For `COc1cccc(OCc2cc(C3Nc4ccccc4C(=O)N3Cc3ccco3)ccc2OC)c1` (configuration not stated), the inhibition is inactive: 42.9%.

For `O=C(CCCCC(=O)NC1CCCC1)NC1CCCC1`, the inhibition was inactive: -1.07%.

As to `CC[C@H](C)C(=O)O[C@H]1C[C@@H](C)C=C2C=C[C@H](C)[C@H](CC[C@@H]3C[C@@H](O)CC(=O)O3)[C@H]21`, the inhibition was inactive: 0.42%.

With `CC1(C)CC(=O)C(C2(O)C(=O)Nc3ccccc32)CO1` (configuration not stated), the inhibition was inactive: -16.5%.

For `Cc1cc(OC(C(=O)O)c2ccccc2)c2c(C)c(Cc3ccccc3)c(=O)oc2c1` (configuration not stated), the inhibition was inactive: 31.9%.

`C[N+]12CCCCC1C(COC(=O)c1ccc3c(c1)OCO3)CCC2` (configuration not stated): the inhibition is inactive: -2.51%.

For the compound `CCCCNc1cc(C(=O)O)cc(S(N)(=O)=O)c1Oc1ccccc1`, the inhibition was inactive: -6.42%.

Consider `CC1(C)CC(CC(=O)O)(c2ccc(Cl)cc2)CCO1` (configuration not stated), for which the inhibition was inactive: 3.84%.

In the case of `COc1c2c(nc3occc13)C(CC=C(C)C)(OC)C(O)CC2` (configuration not stated), the inhibition is inactive: -3.7%.
